These results are taken from paper PMC8425412.

Results are given in words; binding and its absence hold for the method and conditions named. In cells and extracts the contact can be indirect. Binding calls can cover weak binding; strength is not graded here. Where a sequence is shown, tags or fusion partners need not be part of it.

This test concerns the target T1, GFP-PDK1 PH domain (UniProt O15530).
T1 sequence: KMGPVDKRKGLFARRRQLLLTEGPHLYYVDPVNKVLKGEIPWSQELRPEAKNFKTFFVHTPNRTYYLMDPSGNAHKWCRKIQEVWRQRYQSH
Briefly: co-IP; HEK293T cells co-transfected, 24 h; lysate in 20 mM Tris/HCl pH 8, 150 mM NaCl, 1% Triton X-100; precipitated with anti-GFP and protein A/G at 4°C for 2 h; Western blot; in Figures 5D, E cells treated with TAT-conjugated peptides.

“HA-Akt (PKB/Akt, protein kinase B) (enzyme)”: the binding entry is reported as “binds”.
